Results are given in words; binding and its absence hold for the method and conditions named. Binding seen in cells or lysates may run through a third protein. A result given as binding can be weak or reduced; the word gives no strength.
Target: DEAD-box RNA helicase DDX3 (human (endogenous in HCT116)) (UniProt O00571)
Test: co-IP; HCT116 cell extracts (500 μg; PBS with 0.5% NP-40, protease inhibitors), pre-cleared, incubated with anti-DDX3, anti-p53, anti-phospho-Ser15-p53 antibody or control IgG at 4 °C overnight, protein G-Sepharose, washed three times with PBS; western blot with anti-γ-tubulin, anti-DDX3, anti-p53 and anti-phospho-Ser15-p53

Protein sequences, listed by entry. Tags and fused reporters are not part of them. Lines headed by an entry give the natural chain unless they say otherwise; changes in a name come on top.
UniProt O00571: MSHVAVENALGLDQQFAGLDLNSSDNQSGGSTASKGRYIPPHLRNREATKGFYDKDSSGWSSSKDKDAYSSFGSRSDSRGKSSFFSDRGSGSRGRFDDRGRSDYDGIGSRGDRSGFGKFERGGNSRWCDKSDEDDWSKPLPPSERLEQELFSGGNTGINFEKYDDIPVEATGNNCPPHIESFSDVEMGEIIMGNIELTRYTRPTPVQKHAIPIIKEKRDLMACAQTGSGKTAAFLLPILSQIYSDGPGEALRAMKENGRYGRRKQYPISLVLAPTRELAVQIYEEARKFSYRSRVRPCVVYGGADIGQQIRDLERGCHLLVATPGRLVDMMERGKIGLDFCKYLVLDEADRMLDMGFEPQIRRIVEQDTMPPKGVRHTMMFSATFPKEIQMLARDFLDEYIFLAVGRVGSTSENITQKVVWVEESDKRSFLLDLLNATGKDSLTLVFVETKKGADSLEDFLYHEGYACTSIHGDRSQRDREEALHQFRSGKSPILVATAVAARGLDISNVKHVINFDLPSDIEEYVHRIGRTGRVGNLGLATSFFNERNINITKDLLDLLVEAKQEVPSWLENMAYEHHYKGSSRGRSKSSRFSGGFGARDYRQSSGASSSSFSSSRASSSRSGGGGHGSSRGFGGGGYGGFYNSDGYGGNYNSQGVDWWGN
UniProt P23258: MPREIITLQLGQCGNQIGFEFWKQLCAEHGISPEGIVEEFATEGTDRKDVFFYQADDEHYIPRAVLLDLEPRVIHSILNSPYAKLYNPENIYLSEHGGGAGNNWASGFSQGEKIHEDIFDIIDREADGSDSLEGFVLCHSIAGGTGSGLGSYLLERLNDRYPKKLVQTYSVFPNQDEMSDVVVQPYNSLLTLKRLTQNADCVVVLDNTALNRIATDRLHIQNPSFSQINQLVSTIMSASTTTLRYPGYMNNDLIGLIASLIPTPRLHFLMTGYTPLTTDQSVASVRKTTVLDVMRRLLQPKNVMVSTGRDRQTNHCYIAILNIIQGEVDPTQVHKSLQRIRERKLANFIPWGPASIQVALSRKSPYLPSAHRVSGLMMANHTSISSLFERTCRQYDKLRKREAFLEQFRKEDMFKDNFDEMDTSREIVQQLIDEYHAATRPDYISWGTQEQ

binding: binds
Substance: γ-tubulin (from UniProt P23258)

Source: publication PMC5573351
